# Several values for one entry are separate records, joined by “and”; a condition that tells them apart may be missing. Identical values can stand only once. The list shows a part of the results. Further columns of the screen follow, without active or inactive calls. Most of these compounds were active or inconclusive in the main read-out, so they are no random draw. The note in brackets gives the kind of curve behind each potency; many fits are weak.
# Assay: qHTS for identification of novel therapeutic agents for treatment of microphthalmiaassociated transcription factor (MiT) renal cell carcinoma (RCC) (AID 1963991)
# Settings: CellTiter-Glo, 48 h; for z-score: stronger effect = lower value
# How it was run: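 Curves over 11 concentrations were fitted to CellTiter-Glo luminescence, scaled between empty wells (0%) and DMSO (100%) viability. Cells were UOK109, UOK124 and UOK145 TFE3-fusion RCC lines at 500/well, exposed 48 hours at 37 C.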
# [1] = TFE3-RCC viability, measured here: UOK124 cell viability
# [2] = TFE3-RCC viability, measured here: UOK145 cell viability
# [3] = TFE3-RCC UOK109 viability, measured here: UOK109 Z-AUC
# [4] = TFE3-RCC viability, measured here: UOK124 Z-AUC
# [5] = TFE3-RCC viability, measured here: UOK145 Z-AUC
SMILES,AC50 [1],AC50 [2],z-score [3],z-score [4],z-score [5]
COc1cc(=C2C=c3ccccc3=N2)[nH]c1=Cc1[nH]c(C)cc1C,"2960 nM [falling, partial curve]","5900 nM [falling, partial curve]",–,–,–
C[C@](Cc1c[nH]c2ccccc12)(NC(=O)OC1C2CC3CC(C2)CC1C3)C(=O)NC[C@H](NC(=O)CCC(=O)O)c1ccccc1 (stereo partly specified),–,–,-0.27,0.413,0.0283
CC(=O)OCCN1C(=O)c2c(C)nc3ccc(S(=O)(=O)N4CCOCC4)cc3c2C1=O,–,–,0.414,0.855,0.707
CCC(=O)O[C@]1(C(=O)CCl)[C@@H](C)C[C@H]2[C@@H]3CCC4=CC(=O)C=C[C@]4(C)[C@@]3(F)[C@@H](O)C[C@@]21C,–,–,0.0208,0.534,-3.01
C=CC(=O)Nc1cccc(Nc2nc(NC3CCC(N(C)C)CC3)nc3c2ncn3C(C)C)c1 (stereo unspecified),"1870 nM [falling, full curve]","3720 nM [falling, full curve]",–,–,–
Cc1ccc([N+](=O)[O-])cc1S(=O)(=O)N(C)N=Cc1cnc2ccc(Br)cn12,"33.2 nM [falling, full curve]","26.4 nM [falling, full curve]",–,–,–
COc1ccc([C@@H]2CC(=O)c3c(O)cc(O[C@@H]4O[C@H](CO[C@@H]5O[C@@H](C)[C@H](O)[C@@H](O)[C@@H]5O)[C@@H](O)[C@H](O)[C@@H]4O)cc3O2)cc1O,–,–,1.45 and -0.216,0.0773 and 0.459,0.756 and 1.24
CCc1cnn2c(NCc3ccc[n+]([O-])c3)cc(N3CCCC[C@@H]3CCO)nc12,"33.2 nM [falling, full curve]","37.2 nM [falling, full curve]",–,–,–
CC[C@H]1OC(=O)[C@H](C)[C@@H](O[C@H]2C[C@@](C)(OC)[C@@H](O)[C@H](C)O2)[C@H](C)[C@@H](O[C@@H]2O[C@H](C)C[C@H](N(C)C)[C@@H]2O)[C@](C)(OC)C[C@@H](C)C(=O)[C@H](C)[C@@H](O)[C@]1(C)O,–,–,0.421,0.4,0.838
CC(NCc1ccc2c(c1)nc(NC(=O)c1ccc(-c3cn[nH]c3)s1)n2CC(C)(C)O)C(C)(C)C (stereo unspecified),"372 nM [falling, full curve]","935 nM [falling, full curve]",–,–,–
Cc1[nH]c(C=C2C(=O)Nc3ccccc32)c(C)c1CCC(=O)O,"662 nM [falling, full curve]","833 nM [falling, full curve]",–,–,–
CO[C@H]1/C=C\O[C@@]2(C)Oc3c(C)c(O)c4c(O)c(c(C=NN5CCN(C6CCCC6)CC5)c(O)c4c3C2=O)NC(=O)C(C)=CC=C[C@H](C)[C@H](O)[C@@H](C)[C@@H](O)[C@@H](C)[C@H](OC(C)=O)[C@H]1C,"93.5 nM [falling, full curve]","187 nM [falling, full curve]",–,–,–
Nc1ccn([C@H]2CC[C@@H](CO)O2)c(=O)n1,–,–,0.172,0.444,0.217
CC(=NNC(=S)N1CCC1)c1ccccn1,"1.48 nM [falling, full curve, poor fit]","37.2 nM [falling, full curve]",–,–,–
CC[C@H]1CN2CCc3cc(OC)c(OC)cc3[C@H]2C[C@@H]1C[C@@H]1NCCc2cc(OC)c(OC)cc21,"264 nM [falling, full curve]","418 nM [falling, full curve, poor fit]",–,–,–
O=[N+]([O-])c1cn2c(n1)OC[C@@H](OCc1ccc(OC(F)(F)F)cc1)C2,–,–,0.905,0.282,-2.56
CC(C)Nc1cc(C(F)(F)F)cc2nc(NC(=O)c3cccnc3)nn12,–,–,0.185,0.0798,1.18
CNC(=O)c1ccc(N2C(=S)N(c3ccc(C#N)c(C(F)(F)F)c3)C(=O)C2(C)C)cc1F,–,–,0.214,0.405,0.53
CC(C)(O)CC[C@@H](O)[C@](C)(O)[C@H]1CC[C@@]2(O)C3=CC(=O)[C@@H]4C[C@@H](O)[C@@H](O)C[C@]4(C)[C@@H]3CC[C@]12C,–,–,0.195,0.231,0.0796
CNC1CCCN(c2c(F)cc3c(=O)c(C(=O)O)cn(C4CC4)c3c2OC)C1 (stereo unspecified),–,–,0.529,0.732,0.808
Cn1cc(C=C2C(=O)Nc3cccnc32)c2ccccc21,–,–,0.392,-0.253,0.72
C=C1C(=CC=C2CCC[C@]3(C)[C@@H]([C@H](C)C=C[C@H](C)C(C)C)CC[C@@H]23)C[C@@H](O)C[C@@H]1O,"3320 nM [falling, full curve]","2640 nM [falling, full curve]",–,–,–

# — PubChem BioAssay (NCATS)
